Results on one substance are retold here after publication PMC8315024.

Amino acid sequences for entries named in this document (tags omitted). Residues count along the entry.
UniProt Q04206: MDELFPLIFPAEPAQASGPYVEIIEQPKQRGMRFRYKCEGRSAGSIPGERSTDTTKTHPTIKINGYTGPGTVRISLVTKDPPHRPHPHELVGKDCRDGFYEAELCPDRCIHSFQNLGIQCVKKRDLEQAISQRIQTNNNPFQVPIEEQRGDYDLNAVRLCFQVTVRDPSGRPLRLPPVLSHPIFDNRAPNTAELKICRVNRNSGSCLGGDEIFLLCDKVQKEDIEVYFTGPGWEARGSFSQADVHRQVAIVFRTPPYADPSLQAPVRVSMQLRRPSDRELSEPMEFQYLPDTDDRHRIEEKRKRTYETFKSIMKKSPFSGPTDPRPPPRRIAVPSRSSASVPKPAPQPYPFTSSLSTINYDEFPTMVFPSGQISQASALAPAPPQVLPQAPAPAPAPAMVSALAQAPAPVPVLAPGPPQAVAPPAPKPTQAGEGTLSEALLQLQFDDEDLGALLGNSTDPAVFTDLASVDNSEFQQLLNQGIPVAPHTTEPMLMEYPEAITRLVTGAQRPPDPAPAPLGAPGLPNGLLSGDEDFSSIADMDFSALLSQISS
UniProt Q02505, residues 16-3323: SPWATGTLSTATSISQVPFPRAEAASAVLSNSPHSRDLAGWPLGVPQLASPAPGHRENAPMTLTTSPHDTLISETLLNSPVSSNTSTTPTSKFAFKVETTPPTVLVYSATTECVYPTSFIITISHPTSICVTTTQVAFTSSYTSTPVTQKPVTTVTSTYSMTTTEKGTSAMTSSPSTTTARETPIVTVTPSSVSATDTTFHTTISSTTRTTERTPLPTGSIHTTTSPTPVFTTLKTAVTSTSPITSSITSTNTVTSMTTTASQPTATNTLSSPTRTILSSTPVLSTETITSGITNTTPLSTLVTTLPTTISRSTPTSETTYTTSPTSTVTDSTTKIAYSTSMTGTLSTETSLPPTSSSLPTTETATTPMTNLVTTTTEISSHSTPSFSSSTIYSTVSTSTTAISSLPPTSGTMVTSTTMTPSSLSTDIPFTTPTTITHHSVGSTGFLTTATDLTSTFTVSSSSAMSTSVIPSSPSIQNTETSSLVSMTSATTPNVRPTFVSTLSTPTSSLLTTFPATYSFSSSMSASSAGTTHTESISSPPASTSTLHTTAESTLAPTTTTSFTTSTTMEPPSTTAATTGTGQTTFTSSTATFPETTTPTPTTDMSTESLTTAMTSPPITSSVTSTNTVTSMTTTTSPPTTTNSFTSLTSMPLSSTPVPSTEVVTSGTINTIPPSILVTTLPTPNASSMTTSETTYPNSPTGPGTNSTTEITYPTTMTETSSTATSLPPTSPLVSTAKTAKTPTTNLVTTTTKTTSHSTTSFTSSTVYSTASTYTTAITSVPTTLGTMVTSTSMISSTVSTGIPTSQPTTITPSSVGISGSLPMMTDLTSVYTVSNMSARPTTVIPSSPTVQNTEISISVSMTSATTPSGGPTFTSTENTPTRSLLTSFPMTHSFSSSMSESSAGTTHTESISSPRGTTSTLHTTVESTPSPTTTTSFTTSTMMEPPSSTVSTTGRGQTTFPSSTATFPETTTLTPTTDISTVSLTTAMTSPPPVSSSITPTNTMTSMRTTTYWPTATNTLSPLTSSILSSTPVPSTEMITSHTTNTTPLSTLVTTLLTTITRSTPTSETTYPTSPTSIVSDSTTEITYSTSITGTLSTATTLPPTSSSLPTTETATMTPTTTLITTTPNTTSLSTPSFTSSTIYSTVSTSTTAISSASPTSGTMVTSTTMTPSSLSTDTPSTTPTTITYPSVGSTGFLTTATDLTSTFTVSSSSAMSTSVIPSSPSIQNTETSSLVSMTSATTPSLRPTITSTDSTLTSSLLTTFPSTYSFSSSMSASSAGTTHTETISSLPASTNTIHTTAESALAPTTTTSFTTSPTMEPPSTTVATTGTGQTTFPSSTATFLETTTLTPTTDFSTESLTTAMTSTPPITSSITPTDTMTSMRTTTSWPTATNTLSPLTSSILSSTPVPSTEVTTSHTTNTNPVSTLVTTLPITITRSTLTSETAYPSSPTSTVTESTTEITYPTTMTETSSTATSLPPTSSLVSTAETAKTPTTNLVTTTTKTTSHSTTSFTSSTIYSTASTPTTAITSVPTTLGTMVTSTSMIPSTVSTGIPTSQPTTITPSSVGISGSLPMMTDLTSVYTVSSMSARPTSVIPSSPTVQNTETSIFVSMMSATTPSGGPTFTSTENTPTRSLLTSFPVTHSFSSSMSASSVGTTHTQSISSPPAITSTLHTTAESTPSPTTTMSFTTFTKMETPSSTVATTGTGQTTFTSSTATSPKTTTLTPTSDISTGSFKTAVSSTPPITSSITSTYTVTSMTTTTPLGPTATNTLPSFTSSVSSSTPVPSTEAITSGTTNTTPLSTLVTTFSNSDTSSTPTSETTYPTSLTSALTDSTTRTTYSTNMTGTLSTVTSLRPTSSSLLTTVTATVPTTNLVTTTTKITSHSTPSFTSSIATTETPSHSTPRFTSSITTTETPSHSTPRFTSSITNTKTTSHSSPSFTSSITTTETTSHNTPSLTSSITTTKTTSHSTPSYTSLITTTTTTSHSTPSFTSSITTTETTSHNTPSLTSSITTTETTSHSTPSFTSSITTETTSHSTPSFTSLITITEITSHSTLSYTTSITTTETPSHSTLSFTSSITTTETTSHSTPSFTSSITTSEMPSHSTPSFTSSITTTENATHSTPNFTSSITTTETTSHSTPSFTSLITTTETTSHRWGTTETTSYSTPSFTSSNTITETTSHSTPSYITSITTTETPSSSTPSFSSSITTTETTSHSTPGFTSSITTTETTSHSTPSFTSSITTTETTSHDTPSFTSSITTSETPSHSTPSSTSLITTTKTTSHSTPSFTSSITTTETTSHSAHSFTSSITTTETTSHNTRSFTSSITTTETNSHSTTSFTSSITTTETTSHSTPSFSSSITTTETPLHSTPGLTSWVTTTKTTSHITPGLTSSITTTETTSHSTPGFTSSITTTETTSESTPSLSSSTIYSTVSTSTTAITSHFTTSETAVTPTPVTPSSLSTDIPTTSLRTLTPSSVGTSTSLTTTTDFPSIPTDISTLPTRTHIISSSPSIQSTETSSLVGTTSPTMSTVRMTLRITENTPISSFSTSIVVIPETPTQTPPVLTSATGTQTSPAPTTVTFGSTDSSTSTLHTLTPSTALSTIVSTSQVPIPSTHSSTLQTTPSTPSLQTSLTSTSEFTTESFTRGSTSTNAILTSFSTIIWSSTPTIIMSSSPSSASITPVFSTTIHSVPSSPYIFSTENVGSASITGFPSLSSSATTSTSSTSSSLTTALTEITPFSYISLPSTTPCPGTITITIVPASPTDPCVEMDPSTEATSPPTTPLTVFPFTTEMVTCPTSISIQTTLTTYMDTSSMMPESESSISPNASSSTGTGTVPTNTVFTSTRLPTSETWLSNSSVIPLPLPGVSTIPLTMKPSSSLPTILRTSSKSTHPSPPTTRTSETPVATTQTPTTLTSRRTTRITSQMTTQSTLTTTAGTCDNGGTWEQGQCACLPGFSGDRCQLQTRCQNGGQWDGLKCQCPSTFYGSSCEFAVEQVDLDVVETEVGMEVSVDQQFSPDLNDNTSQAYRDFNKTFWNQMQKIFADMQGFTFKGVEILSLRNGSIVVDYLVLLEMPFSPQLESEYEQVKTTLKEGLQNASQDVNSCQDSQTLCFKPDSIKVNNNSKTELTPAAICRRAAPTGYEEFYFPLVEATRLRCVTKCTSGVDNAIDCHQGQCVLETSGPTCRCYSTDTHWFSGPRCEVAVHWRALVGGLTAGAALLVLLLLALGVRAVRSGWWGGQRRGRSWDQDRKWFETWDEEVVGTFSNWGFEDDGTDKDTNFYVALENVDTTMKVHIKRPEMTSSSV

In the assay the target is RELA, also called P65 (human (endogenous in H1299 and H1975)) (UniProt Q04206). As to the kind of experiment: co-IP; endogenous proteins in H1299 and H1975 cells; lysis in RIPA buffer with protease and phosphatase inhibitors; BeaverBeads Protein A/G Kit; which protein was precipitated is not told.

Results are given in words; binding and its absence hold for the method and conditions named. In cells and extracts the contact can be indirect. Some results given as binding are weak or reduced against the parent protein; the word gives no strength.

As to “Mucin 3A (MUC3A) (from UniProt Q02505 16-3323)”, the binding result is on record as “binds”.
